# Laboratory results: the supplement of paper PMC8728848
# The other results are listed elsewhere or left out.
# B1: cFel (Cyprinus carpio), P68512 (protein)
# chain: LDCTVIDGNLKQIDAGSGSVVGVNNLNETFVLIDNVFTKISGSLKHFSVGPAGQLGVNTANNIFKYQSGGFVQLAGLLKQVDAGGDQIIAGVNMYDDIYCLNMDANNKWPSSNTPWVQINGKLKYYSCGPYSCWGVNSNDQIFIMKDVSSNVCSGSGSFINIPGLLSMIEVATDGSVFGVNSQGNLYQRTGVTRSKPDGTDWISMVACPNGHKHVSFDLGVLWLVCVDGSIRKCILTD
# Experiments:
# Assay in all cases: glycan array binding signal (z-score within array); higher = stronger binding
# Settings in all cases: glycan notation: IUPAC condensed, linker removed
# GalNAc(b1-4)GlcNAc = target: GalNAc(b1-4)GlcNAc
# Procedure, shortened: (§1)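 The Consortium for Functional Glycomics database supplied 3228 glycan arrays, of which those lacking an available protein sequence were dropped. The binding signal, a within-array Z-score, was averaged across arrays of the same protein sequence and across linkers. Negative scores can be read as non-binding.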
# [1] = target: GalNAc(b1-4)GlcNAc(b1-2)Man
# Procedure, shortened: as §1
# [2] = target: GalNAc(b1-4)GlcNAc(b1-2)Man(a1-3)[GalNAc(b1-4)GlcNAc(b1-2)Man(a1-6)]Man(b1-4)GlcNAc(b1-4)GlcNAc
# Procedure, shortened: as §1
# [3] = target: GalNAc(b1-4)GlcNAc(b1-3)GalNAc(b1-4)GlcNAc
# Procedure, shortened: as §1
# GalNAc(b1-4)GlcNAc6S = target: GalNAc(b1-4)GlcNAc6S
# Procedure, shortened: as §1
# GalNAc(b1-6)GalNAc = target: GalNAc(b1-6)GalNAc
# Procedure, shortened: as §1
# GalNAc3S(b1-4)GlcNAc = target: GalNAc3S(b1-4)GlcNAc
# Procedure, shortened: as §1
# GalNAc3S(b1-4)GlcNAc3S = target: GalNAc3S(b1-4)GlcNAc3S
# Procedure, shortened: as §1
# [4] = target: GalNAc3S(b1-4)[Fuc(a1-3)]GlcNAc
# Procedure, shortened: as §1
# GalNAc4S6S(b1-4)GlcNAc = target: GalNAc4S6S(b1-4)GlcNAc
# Procedure, shortened: as §1
# GalNAc6S(b1-4)GlcNAc = target: GalNAc6S(b1-4)GlcNAc
# Procedure, shortened: as §1
# Glc(a1-4)Glc = target: Glc(a1-4)Glc
# Procedure, shortened: as §1
# [5] = target: Glc(a1-4)Glc(a1-4)Glc(a1-4)Glc
# Procedure, shortened: as §1
# Glc(a1-6)Glc(a1-6)Glc = target: Glc(a1-6)Glc(a1-6)Glc
# Procedure, shortened: as §1
# [6] = target: Glc(a1-6)Glc(a1-6)Glc(a1-6)Glc
# Procedure, shortened: as §1
# Glc(b1-4)Glc = target: Glc(b1-4)Glc
# Procedure, shortened: as §1
# Glc(b1-6)Glc = target: Glc(b1-6)Glc
# Procedure, shortened: as §1
# GlcA(b1-3)Gal = target: GlcA(b1-3)Gal
# Procedure, shortened: as §1
# GlcA(b1-3)GlcNAc = target: GlcA(b1-3)GlcNAc
# Procedure, shortened: as §1
# GlcA(b1-6)Gal = target: GlcA(b1-6)Gal
# Procedure, shortened: as §1
# [7] = target: GlcA3S(b1-3)Gal(b1-4)GlcNAc(b1-2)Man
# Procedure, shortened: as §1
# [8] = target: GlcA3S(b1-3)Gal(b1-4)GlcNAc(b1-3)Gal(b1-4)Glc
# Procedure, shortened: as §1
# [9] = target: GlcNAc(a1-3)Gal(b1-4)GlcNAc
# Procedure, shortened: as §1
# [10] = target: GlcNAc(a1-4)Gal(b1-3)GlcNAc
# Procedure, shortened: as §1
# [11] = target: GlcNAc(a1-4)Gal(b1-4)GalNAc
# Procedure, shortened: as §1
# [12] = target: GlcNAc(a1-4)Gal(b1-4)GlcNAc
# Procedure, shortened: as §1
# [13] = target: GlcNAc(a1-4)Gal(b1-4)GlcNAc(b1-3)Gal(b1-4)Glc
# Procedure, shortened: as §1
# [14] = target: GlcNAc(a1-4)Gal(b1-4)GlcNAc(b1-3)Gal(b1-4)GlcNAc
# Procedure, shortened: as §1
# [15] = target: GlcNAc(a1-4)Gal(b1-4)GlcNAc(b1-3)Gal(b1-4)GlcNAc(b1-3)Gal(b1-4)GlcNAc
# Procedure, shortened: as §1
# [16] = target: GlcNAc(a1-4)Gal(b1-4)GlcNAc(b1-3)Gal(b1-4)[Fuc(a1-3)]GlcNAc(b1-3)Gal(b1-4)[Fuc(a1-3)]GlcNAc
# Procedure, shortened: as §1
# [17] = target: GlcNAc(a1-6)Gal(b1-4)GlcNAc
# Procedure, shortened: as §1
# [18] = target: GlcNAc(b1-2)Gal(b1-3)GalNAc
# Procedure, shortened: as §1
# [19] = target: GlcNAc(b1-2)Man(a1-3)[GlcNAc(b1-2)Man(a1-6)]Man(b1-4)GlcNAc(b1-4)GlcNAc
# Procedure, shortened: as §1
# [20] = target: GlcNAc(b1-2)Man(a1-3)[GlcNAc(b1-2)Man(a1-6)]Man(b1-4)GlcNAc(b1-4)[Fuc(a1-6)]GlcNAc
# Procedure, shortened: as §1
# [21] = target: GlcNAc(b1-2)Man(a1-3)[GlcNAc(b1-4)][GlcNAc(b1-2)Man(a1-6)]Man(b1-4)GlcNAc(b1-4)GlcNAc
# Procedure, shortened: as §1
# [22] = target: GlcNAc(b1-2)Man(a1-3)[GlcNAc(b1-4)][GlcNAc(b1-2)Man(a1-6)]Man(b1-4)GlcNAc(b1-4)[Fuc(a1-6)]GlcNAc
# Procedure, shortened: as §1
# [23] = target: GlcNAc(b1-2)[GlcNAc(b1-4)]Man(a1-3)[GlcNAc(b1-2)Man(a1-6)]Man(b1-4)GlcNAc(b1-4)GlcNAc
# Procedure, shortened: as §1
# [24] = target: GlcNAc(b1-2)[GlcNAc(b1-4)]Man(a1-3)[GlcNAc(b1-4)][GlcNAc(b1-2)Man(a1-6)]Man(b1-4)GlcNAc(b1-4)GlcNAc
# Procedure, shortened: as §1
# [25] = target: GlcNAc(b1-2)[GlcNAc(b1-4)]Man(a1-3)[GlcNAc(b1-4)][GlcNAc(b1-2)[GlcNAc(b1-6)]Man(a1-6)]Man(b1-4)GlcNAc(b1-4)GlcNAc
# Procedure, shortened: as §1
# [26] = target: GlcNAc(b1-2)[GlcNAc(b1-4)]Man(a1-3)[GlcNAc(b1-4)][GlcNAc(b1-2)[GlcNAc(b1-6)]Man(a1-6)]Man(b1-4)GlcNAc(b1-4)[Fuc(a1-6)]GlcNAc
# Procedure, shortened: as §1
# [27] = target: GlcNAc(b1-2)[GlcNAc(b1-6)]Man(a1-6)[GlcNAc(b1-2)Man(a1-3)]Man(b1-4)GlcNAc(b1-4)GlcNAc
# Procedure, shortened: as §1
# [28] = target: GlcNAc(b1-2)[GlcNAc(b1-6)]Man(a1-6)[GlcNAc(b1-2)Man(a1-3)]Man(b1-4)GlcNAc(b1-4)[Fuc(a1-6)]GlcNAc
# Procedure, shortened: as §1
# [29] = target: GlcNAc(b1-2)[GlcNAc(b1-6)]Man(a1-6)[GlcNAc(b1-4)][GlcNAc(b1-2)Man(a1-3)]Man(b1-4)GlcNAc(b1-4)GlcNAc
# Procedure, shortened: as §1
# GlcNAc(b1-3)Fuc = target: GlcNAc(b1-3)Fuc
# Procedure, shortened: as §1
# GlcNAc(b1-3)Gal = target: GlcNAc(b1-3)Gal
# Procedure, shortened: as §1
binder,measurement,setting,value
B1,glycan array binding signal (z-score),GalNAc(b1-4)GlcNAc,0.605
same,glycan array binding signal (z-score),[1],-0.598
same,glycan array binding signal (z-score),[2],1.66
same,glycan array binding signal (z-score),[3],-1.27
same,glycan array binding signal (z-score),GalNAc(b1-4)GlcNAc6S,-0.823
same,glycan array binding signal (z-score),GalNAc(b1-6)GalNAc,2.47
same,glycan array binding signal (z-score),GalNAc3S(b1-4)GlcNAc,-0.547
same,glycan array binding signal (z-score),GalNAc3S(b1-4)GlcNAc3S,-0.289
same,glycan array binding signal (z-score),[4],-0.396
same,glycan array binding signal (z-score),GalNAc4S6S(b1-4)GlcNAc,-0.77
same,glycan array binding signal (z-score),GalNAc6S(b1-4)GlcNAc,-0.23
same,glycan array binding signal (z-score),Glc(a1-4)Glc,0.518
same,glycan array binding signal (z-score),[5],-0.245
same,glycan array binding signal (z-score),Glc(a1-6)Glc(a1-6)Glc,-0.726
same,glycan array binding signal (z-score),[6],0.658
same,glycan array binding signal (z-score),Glc(b1-4)Glc,0.633
same,glycan array binding signal (z-score),Glc(b1-6)Glc,-0.521
same,glycan array binding signal (z-score),GlcA(b1-3)Gal,-0.368
same,glycan array binding signal (z-score),GlcA(b1-3)GlcNAc,-0.97
same,glycan array binding signal (z-score),GlcA(b1-6)Gal,0.627
same,glycan array binding signal (z-score),[7],0.428
same,glycan array binding signal (z-score),[8],-0.849
same,glycan array binding signal (z-score),[9],0.117
same,glycan array binding signal (z-score),[10],-0.902
same,glycan array binding signal (z-score),[11],0.672
same,glycan array binding signal (z-score),[12],-0.281
same,glycan array binding signal (z-score),[13],-0.623
same,glycan array binding signal (z-score),[14],-0.616
same,glycan array binding signal (z-score),[15],-0.344
same,glycan array binding signal (z-score),[16],-0.963
same,glycan array binding signal (z-score),[17],-1.17
same,glycan array binding signal (z-score),[18],-0.824
same,glycan array binding signal (z-score),[19],-0.445
same,glycan array binding signal (z-score),[20],1.58
same,glycan array binding signal (z-score),[21],1.34
same,glycan array binding signal (z-score),[22],0.224
same,glycan array binding signal (z-score),[23],-0.869
same,glycan array binding signal (z-score),[24],-0.631
same,glycan array binding signal (z-score),[25],-0.197
same,glycan array binding signal (z-score),[26],-0.704
same,glycan array binding signal (z-score),[27],0.788
same,glycan array binding signal (z-score),[28],-0.14
same,glycan array binding signal (z-score),[29],-0.817
same,glycan array binding signal (z-score),GlcNAc(b1-3)Fuc,0.739
same,glycan array binding signal (z-score),GlcNAc(b1-3)Gal,-0.231

# A second format for some results above.
binder | measurement | setting | value
B1 | glycan array binding signal (z-score) | [4] | -0.396
same | glycan array binding signal (z-score) | GalNAc4S6S(b1-4)GlcNAc | -0.77
